Microarray screen: hit calls

Targets (5′ to 3′):
SAM-II: SAM-II riboswitch RNA pseudoknot, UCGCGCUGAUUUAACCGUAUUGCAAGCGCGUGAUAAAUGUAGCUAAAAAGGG. About 200 hits among about 21,000 compounds.
TPP: TPP riboswitch RNA three-way junction, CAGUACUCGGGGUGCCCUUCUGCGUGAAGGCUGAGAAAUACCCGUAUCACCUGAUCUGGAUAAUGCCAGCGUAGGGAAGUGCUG. About 160 hits among about 24,000 compounds.
PreQ1: PreQ1 riboswitch RNA pseudoknot, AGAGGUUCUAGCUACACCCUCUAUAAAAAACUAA. From B. subtilis. About 170 hits among about 24,000 compounds.

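Compounds were printed on reactive glass slides in duplicate spots, a dye-labelled oligonucleotide was laid over them, and the fluorescence left after washing was read. For the PreQ1, TPP and SAM-II riboswitches the laboratory earlier reported (doi:10.1038/s41467-019-09493-3) 1 µM RNA, 2 h, and a rule that included a mean Z-score above 3 (spot signal-to-noise against the whole library), a score well above that on a control array, and duplicate spots agreeing (coefficient of variation under 100). The data file gives only the calls; its cut-offs may differ, and compounds hitting several targets are kept. The calls come from the array alone, and fixing a compound to the slide can hide its binding.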
Key: hit = hit, no hit = tested without a hit.
This is an unselected part of the compounds tested.
A dash means that no call is listed here.

SMILES	SAM-II	TPP	PreQ1
CC(C)(C)c1cc(-c2c[nH]cn2)c(C#N)c(N)n1	no hit	no hit	no hit
COCCCC1(CO)CCCN(Cc2cc(C3CC3)n[nH]2)C1 (stereo not shown)	no hit	no hit	no hit
CCc1ccc(CN(C)C(=O)Cc2c(C)nc(N)nc2C)nc1	no hit	no hit	no hit
CC1CCN(S(=O)(=O)c2ccc(-c3nc(C#N)c(NC4CC4)o3)cc2)CC1	-	no hit	no hit
COc1ccc(-c2noc(-c3nnn(-c4ccc(C)cc4)c3N)n2)cc1	no hit	no hit	no hit
CO[C@H]1C[C@@H](O)C12CCN(C(=O)c1ccc(Cl)cc1F)CC2	no hit	no hit	no hit
Nc1c(Cl)cc2c(c1Cl)C(=O)c1ccccc1C2=O	no hit	no hit	no hit
Clc1ccc(Nc2nc3nonc3nc2N2CCCCC2)cc1	no hit	no hit	no hit
Nc1ccn(C2OC(CCl)C(O)C2O)c(=O)n1 (stereo not shown)	no hit	no hit	no hit
Cc1ccc(C(=O)c2oc3nc(C)cc(C)c3c2N)cc1	no hit	no hit	no hit
O=S(=O)(c1ccccc1)N1C[C@@H](CN2CCCCCC2)[C@@H](CO)C1	no hit	no hit	no hit
Cc1ccc(NC2CCCCC2NS(=O)(=O)c2ccccc2)c(C)c1 (stereo not shown)	-	no hit	no hit
C=CCc1c(C)nc(N)nc1N(C)Cc1cc(C2CC2)on1	no hit	no hit	no hit
O=C1[C@@H]2C[C@H](O)CCN2C(=O)CN1C1Cc2ccccc2C1	no hit	no hit	no hit
COc1ccc(-c2cc(NC3CC3)nc(N)n2)c(C)c1	no hit	no hit	no hit
N#Cc1ccc(NC(=O)Nc2ccccc2Br)c2n[nH]nc12	no hit	no hit	no hit
CCCCc1nc2sc3c(NCCN4CCOCC4)ncnc3c2c2c1COC(C)(C)C2	no hit	no hit	no hit
COc1ccc(N2CC(=O)C(c3nc(C)c(C)s3)=C2N)cc1	-	no hit	no hit
O=C(Nc1ccnn1C1CCN(c2nc3ccccc3cc2CO)CC1)C1CC1	no hit	no hit	no hit
COC(=O)c1ccc(OCC(O)CN2CCN(CC(O)COc3ccc(C(=O)OC)cc3)CC2)cc1 (stereo not shown)	no hit	no hit	no hit
CSc1nc(NCC2CCCO2)c(C#N)c(-c2ccc(C(C)(C)C)cc2)n1 (stereo not shown)	-	no hit	no hit
COc1cccc(CNc2nc3ccc(C)cc3cc2-c2noc(C)n2)c1OC	-	no hit	no hit
Cc1cccc(OCc2ccc(-c3nc(C#N)c(NCCN(C)C)o3)o2)c1	-	no hit	no hit
CC[C@@]1(O)CCN(C(=O)c2ccccc2N(C)C)C[C@H]1O	no hit	no hit	no hit
O=C(NCc1ccncc1)C1CN(c2nc3ccccc3s2)CCN1 (stereo not shown)	no hit	no hit	no hit
O=C(Nc1cccc(F)c1F)N1CCCC1CCO (stereo not shown)	no hit	no hit	no hit
CCOC(=O)c1cc(CNCCc2ccncc2)on1	no hit	no hit	no hit
CC(C)c1nc(C(=O)N2CCCC3(CCNCC3)CC2)cs1	no hit	no hit	no hit
C[C@H](O)CNc1nc(CC2CC2)nc2c1CCN(Cc1ccco1)CC2	no hit	no hit	no hit
CCc1nc2c(C)nc(Nc3ccccc3)nc2n1-c1ccccc1	no hit	no hit	no hit
Cc1ccc(NCc2nc3ccccc3n2C)cc1	no hit	no hit	no hit
Cc1cc(C)n(-c2nc(C)c(C(=O)N(CCO)CCO)s2)n1	-	no hit	no hit
Cc1sc2nc3scc(CC(=O)NCCO)n3c(=O)c2c1C	no hit	no hit	no hit
Cn1c(-c2cccc(Br)c2)cnc1NCc1cccc(F)c1	no hit	no hit	no hit
CC(C)CNc1nc(Oc2ccc(OC(C)C)nn2)nc(N2CCOCC2)n1	-	no hit	no hit
Cc1nc(C(=O)N2CC[C@H](N3CCN(C)CC3)[C@H](CCCO)C2)cs1	no hit	no hit	no hit
CC(C)[C@]12O[C@@H]1[C@@H]1O[C@]13[C@]1(O[C@H]1C[C@@H]1C4=C(CC[C@@]13C)C(=O)OC4)[C@H]2O	no hit	no hit	no hit
CN1CCN(c2ncccc2C#N)CC12CCC(=O)N(CCO)CC2 (stereo not shown)	no hit	no hit	no hit
Nc1nc(SCc2ccc(Cl)cc2)ns1	no hit	no hit	no hit
Cn1cccc1-c1cc(C(=O)NCCNc2cccnc2)[nH]n1	no hit	no hit	no hit
COC(=O)[C@H]1C[C@@H](O)CCN1C(=O)c1scc2c1CCCC2	no hit	no hit	no hit
Cc1ccc(CNc2ncccc2-c2nc(-c3ccc(Cl)cc3)no2)cc1	-	no hit	no hit
CNC(=O)[C@@H]1C[C@@H](N)CN1C(=O)c1cc2ccccc2cn1	no hit	no hit	no hit
CCOc1ccc(C(=O)c2ccc(Cl)c(N)c2)cc1	no hit	no hit	no hit
N=c1ccn2c(n1)O[C@H]1[C@@H](O)[C@@H](CO)O[C@H]12	no hit	no hit	no hit
N#CC1=C(N)Oc2nc[nH]c(=O)c2C1c1ccccc1 (stereo not shown)	no hit	no hit	no hit
O=C([C@@H]1C[C@@H](O)CN1)N1CCC(c2cc(N3CCCC3)ncn2)CC1	no hit	no hit	no hit
CC1(C)CC(=O)C=C(Nc2ccc(F)c(Cl)c2)C1	no hit	no hit	no hit
CC(C(=O)O)c1ccc(-c2ccccc2)c(F)c1 (stereo not shown)	no hit	no hit	no hit
COCCN(C)C[C@H]1C[C@H](CO)CN(C(=O)c2[nH]nc(-c3ccccc3)c2C)C1	no hit	no hit	no hit
c1ccc2oc(N3CCC(NCCc4noc(C5CCC5)n4)CC3)nc2c1	no hit	no hit	no hit
O=C1C(NC2CCCCC2)=C(N2CCOCC2)C(=O)c2ccccc21	no hit	no hit	no hit
C=CCOC(=O)C1=C(C)OC(N)=C(C#N)C1c1ccc2c(c1)OCO2 (stereo not shown)	no hit	no hit	no hit

Some entries from above, unchanged:

| SMILES | SAM-II | TPP | PreQ1 |
|---|---|---|---|
| `C[C@H](O)CNc1nc(CC2CC2)nc2c1CCN(Cc1ccco1)CC2` | no hit | no hit | no hit |
| `CCc1ccc(CN(C)C(=O)Cc2c(C)nc(N)nc2C)nc1` | no hit | no hit | no hit |
| `Cc1nc(C(=O)N2CC[C@H](N3CCN(C)CC3)[C@H](CCCO)C2)cs1` | no hit | no hit | no hit |
| `CCOc1ccc(C(=O)c2ccc(Cl)c(N)c2)cc1` | no hit | no hit | no hit |
| `Cc1ccc(C(=O)c2oc3nc(C)cc(C)c3c2N)cc1` | no hit | no hit | no hit |
| `COc1cccc(CNc2nc3ccc(C)cc3cc2-c2noc(C)n2)c1OC` | - | no hit | no hit |

Source: the ROBIN nucleic acid binder screens (doi:10.1002/anie.202211358).